Results deposited as PubChem BioAssay AID1671195 (Yale University, 2021).
Purpose: 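Regulators of LDL receptor activity judged by labelled LDL uptake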 (primary screen). Cells: human Huh7 hepatoma cells. Knock-down reagent: siRNA pool against human genes, 18 nM. Time to read-out: about 2 to 2.5 days of knockdown, then 8 h LDL uptake. Conditions: DiI-labelled LDL at 30 µg/ml for 8 h, in lipoprotein-deficient serum medium. Read-out: 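Fluorescent LDL signal imaged in cells, scaled to the plate median, robust z-score for each replicate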. Reading the numbers: robust z-score: higher = more LDL uptake after knockdown. Rule for the call: 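Active when two or more replicates show a robust z-score above 2 or below -2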.
In all, the deposit lists about 22,000 reagents; below is a random part of them. About 1,510 of all reagents (6.9%) count as active. 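Active includes knockdowns raising or lowering LDL uptake; positive z-scores mean more uptake, negative mean less.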 Entries without a mark were called inactive. Reagent sequences are not shown.

gene	robust z-score, replicate 1	robust z-score, replicate 2	robust z-score, replicate 3
TGIF2 (TGFB induced factor homeobox 2)	0.192	0.276	0.703
CLDN17 (claudin 17)	0.266	0.157	0.551
SHC4 (SHC adaptor protein 4)	0.943	0.153	0.223
TRIM41 (tripartite motif containing 41)	-0.113	-0.932	-0.17
SMARCD3 (SWI/SNF related BAF chromatin remodeling complex subunit D3)	-0.31	0.136	0.39
MYEOV (myeloma overexpressed)	-0.231	0.814	-0.146
GRIN2C (glutamate ionotropic receptor NMDA type subunit 2C)	-0.946	-0.928	-0.603
LOC401478	-0.549	0.0921	0.524
EOGT (EGF domain specific O-linked N-acetylglucosamine transferase)	-1.25	-1.39	-1.43
KLHDC3 (kelch domain containing 3)	-0.952	-0.825	-0.818
IFIT2 (interferon induced protein with tetratricopeptide repeats 2)	1.37	3.25	1.56

The list goes on; the last 4 above are carried over.
gene	robust z-score, replicate 1	robust z-score, replicate 2	robust z-score, replicate 3
LOC401478	-0.549	0.0921	0.524
EOGT (EGF domain specific O-linked N-acetylglucosamine transferase)	-1.25	-1.39	-1.43
KLHDC3 (kelch domain containing 3)	-0.952	-0.825	-0.818
IFIT2 (interferon induced protein with tetratricopeptide repeats 2)	1.37	3.25	1.56
MED20 (mediator complex subunit 20)	1.26	0.885	2.22
FAM161A (FAM161 centrosomal protein A)	-0.0917	-0.148	-0.249
CD300LF (CD300 molecule like family member f)	0.572	-0.622	0.287
FST (follistatin)	-0.00454	0.058	-0.136
CLEC9A (C-type lectin domain containing 9A)	-0.781	-0.698	-0.505
KLHL7 (kelch like family member 7)	-1.54 (active)	-2.47	-2.13
OR52A1 (olfactory receptor family 52 subfamily A member 1)	4.5 (active)	2.82	4.72
MTX1 (metaxin 1)	0.359	0.581	0.34
CYP4A11 (cytochrome P450 family 4 subfamily A member 11)	2.5 (active)	2.67	1.95
LOC389184 (retired record)	2.13	1.35	1.19
DNAAF5 (dynein axonemal assembly factor 5)	-0.199	-0.193	0.136
HSALR1 (HSP90AB1 associated lncRNA 1)	0.182	0.0796	-0.0325
DEFB132 (defensin beta 132)	-0.00155	-0.0789	-0.273
F13A1 (coagulation factor XIII A chain)	0.678	0.398	0.477
PP2D1 (protein phosphatase 2C like domain containing 1)	-0.415	0.126	-0.483
DPY19L4 (dpy-19 like 4)	0.682	0.283	0.505
CANT1 (calcium activated nucleotidase 1)	-1.27	-1.81	-0.99
